# Measurements reported in ChEMBL document CHEMBL4303122, “Identification of potential treatments for COVID-19 through artificial intelligence-enabled phenomic analysis of human cells infected with SARS-CoV-2” (2020).
# The full ranking holds about 1,600 compounds; the median of “Hit score” is about 0.13, and the highest 2% start at about 0.46. Some of the results follow.
# Tested on: SARS-CoV-2
# Assay: Antiviral activity against SARS-CoV-2 (USA-WA1/2020 strain) measured by imaging in HRCE cells at MOI 0.4 after 96 hrs (reported as hit score from 0-1 for on-disease vs off-disease activity: scores >0.6 considered hits)
# Type: functional, Homo sapiens
row,Compound,Hit score
1,C[C@H]1NCc2cc(-c3ccc4c(=O)c(C(=O)O)cn(C5CC5)c4c3OC(F)F)ccc21 [GARENOXACIN],0.1309
2,Nc1nc(=O)n([C@@H]2CS[C@H](CO)O2)cc1F [EMTRICITABINE],0.1635
3,Cc1onc(-c2c(Cl)cccc2Cl)c1C(=O)N[C@@H]1C(=O)N2[C@@H]1SC(C)(C)[C@@H]2C(=O)O [DICLOXACILLIN],0.1116
4,CC(O)c1cc(C(=O)N[C@@H](C)Cn2ccc(-c3ccc(C#N)c(Cl)c3)n2)n[nH]1 (some centres not stated) [DAROLUTAMIDE],0.2258
5,CCN(CC)C(=O)N[C@H]1C[C@@H]2c3cccc4[nH]cc(c34)C[C@H]2N(C)C1 [TERGURIDE],0.113
6,CO[C@H]1C[C@@H]2CC[C@@H](C)[C@@](O)(O2)C(=O)C(=O)N2CCCC[C@H]2C(=O)O[C@H]([C@H](C)C[C@@H]2CC[C@@H](O)[C@H](OC)C2)CC(=O)[C@H](C)/C=C(\C)[C@@H](O)[C@@H](OC)C(=O)[C@H](C)C[C@H](C)/C=C/C=C/C=C/1C [SIROLIMUS],0.6828
7,CC(=O)OCC1=C(C(=O)O)N2C(=O)[C@@H](NC(=O)Cc3cccs3)[C@H]2SC1 [CEPHALOTHIN],0.1524
8,Cc1nc(C(=O)NCC(=O)O)c(O)c2ccc(Oc3ccccc3)cc12 [ROXADUSTAT],0.4477
9,COc1cc(NS(=O)(=O)c2ccc(N)cc2)ncn1 [SULFAMONOMETHOXINE],0.1552
10,CN(C(=O)CN(CCO)CC(=O)N(C)C(C)(C)Cc1ccccc1)C(C)(C)Cc1ccccc1 [OXETHAZAINE],-0.01116
11,CC(C)(Oc1ccc(Cl)cc1)C(=O)OCCOC(=O)c1cccnc1 [ETOFIBRATE],0.05283
12,COC(=O)N/N=C/c1c[n+]([O-])c2ccccc2[n+]1[O-] [CARBADOX],0.1317
13,O=C(Nc1cnn2ccc(N3CCC[C@@H]3c3cc(F)ccc3F)nc12)N1CC[C@H](O)C1 [LAROTRECTINIB],0.1325
14,CN1CCN2c3ncccc3Cc3ccccc3C2C1 (configuration not stated) [MIRTAZAPINE],0.02738
15,CC(C)[C@H](N)C(=O)OCCOCn1cnc2c(=O)nc(N)[nH]c21 [VALACYCLOVIR],0.03059
16,CC1=NN(c2ccc(C)c(C)c2)C(=O)/C1=N\Nc1cccc(-c2cccc(C(=O)O)c2)c1O [ELTROMBOPAG],0.1261
17,COC(=O)[C@@H]1CC2=CC(=O)CC[C@]2(C)[C@@]23O[C@@H]2C[C@@]2(C)[C@@H](CC[C@@]24CCC(=O)O4)[C@H]13 [EPLERENONE],0.07583

# 2 compounds picked at random from those above, as already listed:
row,Compound,Hit score
11,CC(C)(Oc1ccc(Cl)cc1)C(=O)OCCOC(=O)c1cccnc1 [ETOFIBRATE],0.05283
8,Cc1nc(C(=O)NCC(=O)O)c(O)c2ccc(Oc3ccccc3)cc12 [ROXADUSTAT],0.4477
